For this test, the target named is T1, Rassf5A-RA, Rassf5A protein containing only Ras binding domain (200–365) (mouse) (UniProt Q5EBH1).
T1 sequence: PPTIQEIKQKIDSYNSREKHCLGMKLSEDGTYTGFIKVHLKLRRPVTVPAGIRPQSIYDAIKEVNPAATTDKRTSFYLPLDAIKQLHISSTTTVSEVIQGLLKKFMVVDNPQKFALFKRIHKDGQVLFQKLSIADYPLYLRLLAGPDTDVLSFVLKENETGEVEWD
The test can be described thus: condition: 50 μM (highest analyte concentration, from the methods); SPR; BIAcore T200; GST-Rassf constructs captured on immobilised anti-GST antibody (GST alone on the reference channel); Mst1 constructs as analytes, 0.7-50 μM, flow 30–45 μl/min, HBS-N running buffer, 25 °C; surface regenerated and ligand freshly captured for each concentration; 1:1 binding model, fitted locally; both purified. Background: Surface plasmon resonance follows binding to a sensor surface in real time, without labels.

Results are given in words; binding and its absence hold for the method and conditions named.

In PMC5361201 one finds binding data, which are given here for 1 molecule.

B1: Mst1-C, Mst1 kinase containing only SARAH domain (432–487) (domain or fragment, UniProt Q13043 432-487)
chain: DYEFLKSWTVEDLQKRLLALDPMMEQEIEEIRQKYQSKRQPILDAIEAKKRRQQNF
Consider B1, for which the binding entry is recorded as “no binding”.
